This is an account of results in patent publication US20260263599A1 (AUTOLUS, published 2026).

By UniProt entry, the sequences of proteins in these tests, tags left out. Residues count along the entry.
UniProt P01850, residues 1-144: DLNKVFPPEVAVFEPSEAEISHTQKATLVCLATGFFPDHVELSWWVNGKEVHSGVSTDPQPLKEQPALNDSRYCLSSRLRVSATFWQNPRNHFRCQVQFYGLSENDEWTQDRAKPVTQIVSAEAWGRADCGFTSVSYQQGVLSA

Substitutions are numbered along the chain they refer to. These are yes or no findings as the source states them, for the method shown. Some results given as binding are weak or reduced against the parent protein; the word gives no strength.

The target of the assay is T Cell Receptor Beta Constant 1 (TRBC1) (human) (UniProt P01850). Briefly: ELISA. In general terms: In an ELISA, binding on a coated surface is turned into a signal by an enzyme label.

B1: chimeric antibody having murine JOVI-1 VH and VL domains (antibody, V domains shown)
VH: EVRLQQSGPDLIKPGASVKMSCKASGYTFTGYVMHWVKQRPGQGLEWIGFINPYNDDIQSNERFRGKATLTSDKSSTTAYMELSSLTSEDSAVYYCARGAGYNFDGAYRFFDFWGQGTTLTVSS
VL: DVVMTQSPLSLPVSLGDQASISCRSSQRLVHSNGNTYLHWYLQKPGQSPKLLIYRVSNRFPGVPDRFSGSGSGTDFTLKISRVEAEDLGIYFCSQSTHVPYTFGGGTKLEIKR
For the molecule B1, the binding entry is reported as “binds”.

B2: chimeric antibody with humanised VH (H-KF688165 framework) and murine JOVI-1 VL (antibody, V domains shown)
VH: QVQLVQSGAEVKKPGASVKVSCKASEYSFTGYVMHWVRQAPGQGLEWMGFINPYNDDIQSNERFRGRVTMTRDTSISTAYMEVSSLTSDDAAIYYCARGAGYNFDGAYRFFDFWGQGTLVTVSS
VL: B1 VL
Take B2: the binding result is listed as “binds”.

B3: chimeric antibody with humanised VH (H-EF177999 framework) and murine JOVI-1 VL (antibody, V domains shown)
VH: EVQLVESGAEVKKPGASVKVSCKASGYTFTGYVMHWVRQAPGQGLEWMGFINPYNDDIQSNERFRGRVTMTRDTSTSTVYMELSSLRSEDTAVYYCARGAGYNFDGAYRFFDFWGQGTLVTVSS
VL: B1 VL
Regarding B3, the binding entry was “binds”.

B4: chimeric antibody with murine JOVI-1 VH and humanised VL (3aaz framework) (antibody, V domains shown)
VH: B1 VH
VL: DIVMTQSPLSLPVTPGEPASISCRSSQRLVHSNGNTYLHWYLQKPGQSPRLLIYRVSNRFPGVPDRFSGSGSGTDFTLKISRVEAEDVGVYYCSQSTHVPYTFGQGTKLEIK
Regarding B4, the binding entry is “binds”.

B5: chimeric antibody with humanised VH (H-AF062256 framework) and murine JOVI-1 VL (antibody, V domains shown)
VH: B3 VH with E1Q, E6Q, T76I, V79A, S85R, E89D, L119M
VL: B1 VL
With B5, the binding result is reported as “binds”.

B6: Jovi Hum 8 (antibody, V domains shown)
VH: B3 VH with E1Q, E6Q, T76I, V79A, S85R, E89D, L119M
VL: B4 VL
notes: also called H-AF 1; humanised antibody with H-AF062256 VH and 3aaz VL
B6: the binding entry is listed as “binds”.

B7: humanised antibody with humanised VH (H-EF177999 framework) and humanised VL (3aaz framework) (antibody, V domains shown)
VH: B3 VH
VL: B4 VL
As to B7, the binding result is “binds”.

B8: humanised antibody with humanised VH (H-KF688165 framework) and humanised VL (3aaz framework) (antibody, V domains shown)
VH: B2 VH
VL: B4 VL
Take B8: the binding result is “binds”.

B9: Jovi Hum 16 (antibody, V domains shown)
VH: B3 VH with E1Q, E6Q, T74K, T76I, V79A, S85R, E89D, L119M
VL: B4 VL
notes: also called H-AF 2
For B9, the binding result is given as “binds”.

B10: Jovi Hum 19 (antibody, V domains shown)
VH: B3 VH with E1Q, E6Q, M48I, T76I, V79A, S85R, E89D, L119M
VL: B4 VL
notes: also called H-AF 5
For the molecule B10, the binding result is given as “binds”.

B11: Jovi Hum 20 (antibody, V domains shown)
VH: B3 VH with E1Q, E6Q, M48I, T74K, T76I, V79A, S85R, E89D, L119M
VL: B4 VL
notes: also called H-AF 6
Regarding B11, the binding result is recorded as “binds”.

B12: Jovi Hum 27 (antibody, V domains shown)
VH: B3 VH with E1Q, E6Q, V20M, M48I, T76I, V79A, S85R, E89D, L119M
VL: B4 VL
notes: also called H-AF 13
Take B12: the binding entry is “binds”.

B13: Jovi Hum 18 (antibody, V domains shown)
VH: B3 VH with E1Q, E6Q, R72S, T74K, T76I, V79A, S85R, E89D, L119M
VL: B4 VL
notes: also called H-AF 4
Regarding B13, the binding result was “binds”.

B14: Jovi Hum 21 (antibody, V domains shown)
VH: B3 VH with E1Q, E6Q, M48I, R72S, T76I, V79A, S85R, E89D, L119M
VL: B4 VL
notes: also called H-AF 7
On to B14, for which the binding entry was “binds”.

B15: Jovi Hum 26 (antibody, V domains shown)
VH: B3 VH with E1Q, E6Q, V20M, R72S, T74K, T76I, V79A, S85R, E89D, L119M
VL: B4 VL
notes: also called H-AF 12
For the molecule B15, the binding entry is “binds”.

B16: Jovi Hum 17 (antibody, V domains shown)
VH: B3 VH with E1Q, E6Q, R72S, T76I, V79A, S85R, E89D, L119M
VL: B4 VL
notes: also called H-AF 3
Consider B16, for which the binding result is listed as “binds”.
